Here are results for one molecule from article PMC12374970.

By UniProt entry, the sequences of proteins in these tests, tags left out.
UniProt Q9UPY3: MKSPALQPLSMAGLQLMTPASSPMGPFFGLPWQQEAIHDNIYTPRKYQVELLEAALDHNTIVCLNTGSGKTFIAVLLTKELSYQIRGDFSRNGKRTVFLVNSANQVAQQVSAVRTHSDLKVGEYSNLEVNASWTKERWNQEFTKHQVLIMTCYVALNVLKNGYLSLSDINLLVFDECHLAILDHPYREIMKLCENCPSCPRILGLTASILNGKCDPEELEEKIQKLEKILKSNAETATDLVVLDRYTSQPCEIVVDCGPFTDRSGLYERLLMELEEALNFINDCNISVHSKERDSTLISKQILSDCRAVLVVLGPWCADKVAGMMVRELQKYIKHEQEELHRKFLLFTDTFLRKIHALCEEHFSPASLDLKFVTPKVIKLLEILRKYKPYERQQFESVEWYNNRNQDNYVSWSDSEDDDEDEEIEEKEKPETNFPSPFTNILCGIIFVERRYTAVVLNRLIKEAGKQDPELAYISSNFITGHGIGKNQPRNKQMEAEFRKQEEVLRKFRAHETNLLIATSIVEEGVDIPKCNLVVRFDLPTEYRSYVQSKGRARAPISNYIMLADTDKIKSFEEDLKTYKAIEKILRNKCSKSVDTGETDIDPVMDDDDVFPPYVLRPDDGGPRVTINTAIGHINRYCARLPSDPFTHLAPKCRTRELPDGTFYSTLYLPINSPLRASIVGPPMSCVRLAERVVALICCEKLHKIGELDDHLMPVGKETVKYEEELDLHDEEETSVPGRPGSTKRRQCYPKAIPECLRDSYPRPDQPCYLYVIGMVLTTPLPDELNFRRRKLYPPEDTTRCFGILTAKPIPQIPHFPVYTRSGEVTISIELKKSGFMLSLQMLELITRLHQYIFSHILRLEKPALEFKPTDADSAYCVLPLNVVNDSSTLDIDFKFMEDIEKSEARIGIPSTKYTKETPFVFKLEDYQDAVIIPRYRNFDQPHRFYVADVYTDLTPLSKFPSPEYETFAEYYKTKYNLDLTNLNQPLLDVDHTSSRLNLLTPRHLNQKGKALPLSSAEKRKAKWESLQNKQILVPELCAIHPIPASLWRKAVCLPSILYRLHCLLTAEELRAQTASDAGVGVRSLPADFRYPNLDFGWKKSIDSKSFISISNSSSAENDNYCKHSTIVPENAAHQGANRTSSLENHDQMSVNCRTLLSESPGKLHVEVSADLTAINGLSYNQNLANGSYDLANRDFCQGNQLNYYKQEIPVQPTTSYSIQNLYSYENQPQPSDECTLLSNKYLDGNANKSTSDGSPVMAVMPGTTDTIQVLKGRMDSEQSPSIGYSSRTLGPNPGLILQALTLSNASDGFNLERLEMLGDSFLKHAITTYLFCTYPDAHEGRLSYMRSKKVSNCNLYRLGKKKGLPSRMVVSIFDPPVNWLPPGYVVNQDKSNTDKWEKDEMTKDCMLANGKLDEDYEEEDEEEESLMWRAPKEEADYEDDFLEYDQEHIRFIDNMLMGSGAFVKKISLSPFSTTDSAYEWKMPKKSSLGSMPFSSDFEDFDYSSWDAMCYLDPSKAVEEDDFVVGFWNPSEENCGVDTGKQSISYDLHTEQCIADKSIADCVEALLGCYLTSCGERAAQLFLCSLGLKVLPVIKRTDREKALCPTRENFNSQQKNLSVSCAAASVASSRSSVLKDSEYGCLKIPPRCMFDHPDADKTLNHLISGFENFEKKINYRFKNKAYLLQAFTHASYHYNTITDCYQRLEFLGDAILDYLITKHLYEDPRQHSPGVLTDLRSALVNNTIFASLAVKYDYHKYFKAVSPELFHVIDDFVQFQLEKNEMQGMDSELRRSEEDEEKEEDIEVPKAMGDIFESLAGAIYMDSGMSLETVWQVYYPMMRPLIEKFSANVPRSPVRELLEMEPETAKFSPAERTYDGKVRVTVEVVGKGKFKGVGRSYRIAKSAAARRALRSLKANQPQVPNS

Results are given in words; binding and its absence hold for the method and conditions named. In cells and extracts the contact can be indirect.

In this assay the target is DICER (endogenous, U2OS cells) (human (endogenous in U2OS)) (UniProt Q9UPY3). The assay can be described thus: proximity ligation; Duolink In Situ PLA with antibodies to the endogenous proteins in fixed, permeabilised cells (U2OS); untreated, +IR (10 Gy, 15 min) or +4OHT; also with DRB, triptolide or post-fixation RNase digestion.

B1: DNMT2 (enzyme, UniProt O14717 1-391)
chain: MEPLRVLELYSGVGGMHHALRESCIPAQVVAAIDVNTVANEVYKYNFPHTQLLAKTIEGITLEEFDRLSFDMILMSPPCQPFTRIGRQGDMTDSRTNSFLHILDILPRLQKLPKYILLENVKGFEVSSTRDLLIQTIENCGFQYQEFLLSPTSLGIPNSRLRYFLIAKLQSEPLPFQAPGQVLMEFPKIESVHPQKYAMDVENKIQEKNVEPNISFDGSIQCSGKDAILFKLETAEEIHRKNQQDSDLSVKMLKDFLEDDTDVNQYLLPPKSLLRYALLLDIVQPTCRRSVCFTKGYGSYIEGTGSVLQTAEDVQVENIYKSLTNLSQEEQITKLLILKLRYFTPKEIANLLGFPPEFGFPEKITVKQRYRLLGNSLNVHVVAKLIKILYE
As to B1, the binding result was “no binding”.
